These are yes or no findings as the source states them, for the method shown. For some assays here: Binding seen in cells or lysates may run through a third protein. Some entries that bind do so weakly or less than the wild type. For some assays here: Where a sequence is shown, tags or fusion partners need not be part of it.
Key:
[1] = molecular target: ActRIIA (ACVR2A) intracellular domain, residues 191-488 (human) (UniProt P27037); experiment: SEC-MALS; Shodex KW-803 column; proteins at 5 mg/mL in 50 mM HEPES pH 7.5, 300 mM NaCl, 0.5 mM TCEP; 0.5 mL/min; receptor domains alone and mixed with FKBP12.6; both purified
[2] = molecular target: T1, FLAG-tagged full-length ALK2 (human) (UniProt Q04771); experiment: co-IP; MDA-MB-231 cells co-transfected with FLAG-tagged ALK2 and GFP-tagged FKBP12 or FKBP12.6; 1 mg lysate (20 mM Tris-HCl pH 7.5, 150 mM NaCl, 25 mM NaF, 0.1% Triton X-100) on anti-FLAG M2 beads, 2 h at 4 °C; blot with anti-GFP
T1 sequence: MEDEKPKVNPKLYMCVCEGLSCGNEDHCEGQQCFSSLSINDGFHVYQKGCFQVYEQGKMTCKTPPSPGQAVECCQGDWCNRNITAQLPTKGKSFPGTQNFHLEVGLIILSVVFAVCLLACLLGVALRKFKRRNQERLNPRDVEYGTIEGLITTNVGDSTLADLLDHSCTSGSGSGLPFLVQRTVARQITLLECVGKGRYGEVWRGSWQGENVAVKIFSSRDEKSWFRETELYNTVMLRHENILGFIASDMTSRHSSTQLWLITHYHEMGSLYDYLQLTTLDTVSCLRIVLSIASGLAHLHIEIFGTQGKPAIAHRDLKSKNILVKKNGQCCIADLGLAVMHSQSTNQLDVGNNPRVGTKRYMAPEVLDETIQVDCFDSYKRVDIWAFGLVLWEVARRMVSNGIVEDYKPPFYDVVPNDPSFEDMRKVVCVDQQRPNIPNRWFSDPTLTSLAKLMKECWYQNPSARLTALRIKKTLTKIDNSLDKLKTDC

Sequences of proteins named here, by UniProt entry; tags and fusion partners are left off. Residues count along the entry.
UniProt P27037, residues 191-488: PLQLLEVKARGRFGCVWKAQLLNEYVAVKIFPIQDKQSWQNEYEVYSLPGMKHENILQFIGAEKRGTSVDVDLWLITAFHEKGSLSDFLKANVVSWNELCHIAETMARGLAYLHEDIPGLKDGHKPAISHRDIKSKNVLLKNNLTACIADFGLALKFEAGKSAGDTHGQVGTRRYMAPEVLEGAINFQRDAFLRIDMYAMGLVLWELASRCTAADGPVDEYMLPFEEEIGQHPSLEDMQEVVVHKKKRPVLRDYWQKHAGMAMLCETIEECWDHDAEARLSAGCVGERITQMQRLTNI
UniProt P68106: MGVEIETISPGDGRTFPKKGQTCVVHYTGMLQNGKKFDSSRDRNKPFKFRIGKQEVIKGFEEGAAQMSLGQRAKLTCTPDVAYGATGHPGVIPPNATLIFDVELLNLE

| binding [1] | binding [2] | Substance |
| --- | --- | --- |
| no binding (tested: 5 mg/mL) | – | FKBP12.6 (FKBP1B), full length, recombinant (from UniProt P68106 1-108) |
| – | binds | GFP-tagged full-length FKBP12.6 (from UniProt P68106 1-108) |

— paper PMC7911104
